These results are taken from PubChem BioAssay AID493014 (National Center for Advancing Translational Sciences (NCATS), 2011).

The list shows a part of the results. The main result of the screen is listed elsewhere. These columns were measured beside it and carry no call. Most of these compounds were active or inconclusive in the main read-out, so they are no random draw. Potencies come from curve fits of mixed quality, noted in brackets.

This experiment in a line: qHTS Assay to Find Inhibitors of Chronic Active B-Cell Receptor Signaling. The note with it: ABC-DLBCL IkBa-CBG/CBR reporter, luminescence ratio (green luciferase fused to IkBa over red control in TMD8 lymphoma cells), 4 h. The essentials:
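TMD8 human ABC-DLBCL cells with doxycycline-inducible IκBα–green luciferase fusion and unfused red luciferase, in 0.5% FBS medium; compounds up to 46 uM, 4 h at 37C. Green/red luminescence ratio, filter-overlap corrected, fitted to concentration-response curves.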
(Quantitative high-throughput screening tests each substance at several concentrations.)

Where [1] appears, read: measured here: CBR red luminescence, cell number.
[2] abbreviates: measured here: IkBa-CBG green luminescence.

For the compound `CCCCOc1ccc(N(CC(=O)NCC2CCCO2)C(=O)CCC(=O)Nc2nccs2)cc1` (stereo unspecified), the AC50 – broadly, the concentration at which the activity in the assay is half-maximal – under setting [1] was 11.2 µM [rising, partial curve, poor fit].

`CCOc1ccc(N2C(=O)c3ccccc3NC2(C)CC)cc1` (stereo unspecified): the AC50 under setting [1] is 9.2 µM [falling, partial curve].

In the case of `CC(C(=O)NCCCc1ccccc1)c1ccc([N+](=O)[O-])cc1` (stereo unspecified), the half-maximal activity concentration (AC50) under setting [1] was 1.58 µM [falling, partial curve, poor fit].

Consider `CCOC(=O)c1cnn(-c2ccc(C(C)C)cc2)c1NC(=O)C1CCC1`, for which the AC50 under setting [1] is 3.55 µM [rising, partial curve].

Take `c1ccc2c(c1)CCN(c1ncnc3c1[nH]c1ccccc13)C2`: the AC50 under setting [1] was 14.6 µM [falling, single point].

For the compound `Cc1cc(NC(=S)N(CCN2CCCCC2)Cc2ccco2)ccc1Cl`, the AC50 under setting [1] is 25.1 µM [falling, single point].

As for `O=C(CC(Sc1ccc(Br)cc1)C(=O)O)c1ccc(F)cc1` (stereo unspecified), the AC50 under setting [1] is 17.8 µM [falling, single point].

`Nc1ccc(O)cc1C(=O)OCC(=O)c1ccc(C2CCCCC2)cc1`: under setting [1], the AC50 was 29.1 µM [rising, single point].

As for `CCC(C)NC(=O)c1cc(C)no1` (stereo unspecified), the AC50 is 29.1 µM [falling, single point] under setting [1] and 32.6 µM [rising, partial curve, poor fit] under setting [2].

Regarding `Oc1ccc(/C=N/n2cnn(Cc3ccccc3Cl)c2=S)c(O)c1`, the AC50 under setting [1] is 20.6 µM [falling, single point].

Regarding `Cn1cc(CN2CCC(C(=O)N3CCCC3)CC2)c(-c2ccccc2F)n1`, the half-maximal activity concentration (AC50) under setting [1] was 7.94 µM [rising, partial curve, poor fit].

Regarding `CCOCCN1CCN(c2c3c(nc4cc(-c5ccc(F)cc5)nn24)CCC3)CC1`, under setting [1], the AC50 was 17.8 µM [rising, partial curve, poor fit].

Turning to `COc1ccc2cnn(-c3ccc(OC(F)(F)F)cc3)c(=O)c2c1OC`, the AC50 under setting [1] is 3.55 µM [rising, partial curve, poor fit].

With `CCn1c(SCC(=O)Nc2ccc(C(C)=O)cc2)nc2nc3c(cc2c1=O)COC(C)(C)C3`, the AC50 under setting [1] is 0.282 µM [rising, full curve, poor fit].

Regarding `Cc1ccc(C(=O)c2cnc3ccccc3c2-c2ccccc2)cc1`, the AC50 under setting [1] is 14.1 µM [falling, partial curve, poor fit].

Consider `Cc1ccc(CC2S/C(=C(/C#N)C(=O)N3CCOCC3)N(c3ccccc3)C2=O)cc1` (stereo unspecified), for which the AC50 under setting [1] was 1.3 µM [falling, partial curve, poor fit].

`O=C(CCC1CCCCC1)NCc1ccc(F)cc1`: the AC50 under setting [1] is 0.231 µM [rising, full curve, poor fit].

On to `C/C(=C\C(=O)c1ccccc1)Nc1ccc(O)cc1`, for which, under setting [1], the AC50 is 1.16 µM [rising, partial curve].

Take `O=C(NCCC(=O)N1CCCCCCC1)c1ccc(Cl)cc1`: the AC50 under setting [1] was 0.731 µM [rising, full curve].

`NNC(=S)NCc1ccco1`: the half-maximal activity concentration (AC50) under setting [1] was 15.8 µM [falling, single point].

Consider `C[C@H]1C(=O)N(C)CCN1Cc1cn(C)nc1-c1ccc(Oc2ccccc2)cc1`, for which, under setting [1], the AC50 was 20 µM [rising, partial curve, poor fit].

For the compound `CC(C)CCOc1ccc(CO[C@@H]2[C@H]3OC(C)(C)O[C@H]3O[C@@H]2C(O)CO)cc1` (stereo partly specified), under setting [2], the AC50 was 35.5 µM [falling, partial curve, poor fit].

Consider `Cc1cc(C)nc(SCc2nnc(SCC(=O)Nc3cc(C(F)(F)F)ccc3Cl)o2)n1`, for which, under setting [1], the AC50 is 20.6 µM [rising, single point].

Consider `Cc1nn(-c2ccc(C(=O)O)cc2)c(C)c1Cl`, for which, under setting [1], the AC50 was 35.5 µM [falling, single point].

On to `COCc1cc(=O)n2[nH]cc(-c3ccsc3)c2n1`, for which, under setting [1], the concentration at half-maximal activity (AC50) was 5.62 µM [rising, single point].

As to `COc1cccc(/C=C2/SC(=O)N(C)C2=O)c1OCc1ccc(C(=O)O)cc1`, under setting [1], the AC50 is 20 µM [falling, single point].

On to `Cc1ccccc1NCCNc1ccccc1C`, for which the half-maximal activity concentration (AC50) under setting [1] was 29.1 µM [falling, partial curve, poor fit].

In the case of `C/C(=N\NC(=O)c1cc(O)ccc1O)c1cccc(NC(=O)c2cccc(Cl)c2)c1`, the AC50 under setting [1] was 10 µM [falling, partial curve, poor fit].

For `COc1cc(/C=C2/SC(=S)N(Cc3ccccc3)C2=O)cc(Cl)c1O`, under setting [1], the AC50 is 35.5 µM [rising, single point].

Take `Cc1cc(N2CCOCC2)n2ncc(-c3ccccc3)c2n1`: under setting [1], the AC50 was 4.61 µM [falling, full curve, poor fit].

In the case of `CCc1ccc(NC(=O)C2CCCN(S(=O)(=O)c3cccs3)C2)cc1` (stereo unspecified), under setting [1], the AC50 is 1.78 µM [falling, partial curve, poor fit].

Regarding `O=C(Cc1ccc(S(=O)(=O)N2CCCCC2)s1)Nc1cccc2ccccc12`, the AC50 under setting [1] is 6.51 µM [rising, partial curve, poor fit].

Take `C/C(=C(/CCO)SSCC1CCCO1)N(C=O)Cc1cnc(C)nc1N` (stereo unspecified): under setting [1], the AC50 is 23.1 µM [falling, partial curve].

In the case of `Cc1ccc(/C(N)=N/OC(=O)c2ccc(Cl)cc2Cl)cc1`, the half-maximal activity concentration (AC50) under setting [1] was 1.16 µM [rising, full curve, poor fit].

With `N/C(=N\OC(=O)c1ccoc1)c1ccc(Br)cc1`, the AC50 under setting [1] is 0.562 µM [rising, full curve, poor fit].

Consider `COc1ccc(-c2c(-c3ccccc3OC)sc3ccccc23)cc1`, for which the AC50 under setting [1] is 1.41 µM [rising, partial curve, poor fit].

`Cc1ccc(NC(=O)CCCNC(=O)c2ccc(Cl)cc2)c(O)c1`: the half-maximal activity concentration (AC50) under setting [1] was 0.282 µM [rising, full curve, poor fit].

For the compound `CN1CCN(c2ccccc2NC(=O)C(Cc2ccccc2)n2cccc2)CC1` (stereo unspecified), under setting [1], the AC50 is 29.1 µM [falling, single point].

On to `O=C(CCCSc1ccc(Cl)cc1)Nc1ccccc1O`, for which the AC50 under setting [1] is 0.447 µM [falling, full curve].

Turning to `Cc1ccccc1NC(=O)C(C)O/N=C/c1cccc([N+](=O)[O-])c1` (stereo unspecified), the AC50 under setting [1] was 2.91 µM [rising, partial curve, poor fit].

In the case of `COc1ccc(C(=O)COC(=O)/C=C/c2ccco2)cc1F`, the AC50 under setting [1] was 20.6 µM [rising, partial curve, poor fit].

In the case of `NS(=O)(=O)c1cccc(NC(=O)COC(=O)CN2C(=O)C3CC=CCC3C2=O)c1` (stereo unspecified), the AC50 under setting [1] is 3.98 µM [rising, partial curve, poor fit].

As to `Cc1ccc(C(=O)NN2C(=O)c3ccc(S(=O)(=O)c4ccc(C(=O)O)cc4)cc3C2=O)cc1`, the AC50 under setting [1] is 14.1 µM [falling, partial curve, poor fit].

`O=C(c1cc2cc([N+](=O)[O-])ccc2oc1=O)N1CCOCC1`: the AC50 under setting [1] is 3.16 µM [falling, full curve] and the AC50 under setting [2] is 0.316 µM [rising, full curve].

As for `CS(=O)(=O)c1ccc(C(=O)OC2CCOC2=O)cc1[N+](=O)[O-]` (stereo unspecified), the AC50 under setting [1] was 15.8 µM [falling, single point].

With `O=C(NCCC1CCCCN1S(=O)(=O)c1cccs1)C(=O)Nc1cccc(F)c1` (stereo unspecified), under setting [1], the AC50 was 2.91 µM [falling, full curve].

Regarding `COc1ccc(CN2C(=O)CCC2(C)C(=O)NCc2cccnc2)c(OC)c1` (stereo unspecified), under setting [1], the AC50 is 35.5 µM [falling, single point].

As to `Cc1cc(C)c2c(N)c(C(=O)Nc3ccccc3C(F)(F)F)sc2n1`, the AC50 under setting [1] was 3.55 µM [falling, full curve, poor fit].

As to `COc1ccccc1C/C(N)=N/OC(=O)c1cccc([N+](=O)[O-])c1C`, under setting [1], the half-maximal activity concentration (AC50) is 23.1 µM [rising, partial curve, poor fit].

In the case of `COc1ccccc1-c1n[nH]c(=S)n1Cc1ccco1`, under setting [1], the AC50 was 15.8 µM [falling, partial curve].

`O=c1c2cnn(-c3ccccc3)c2ncn1Cc1ccco1`: under setting [1], the AC50 was 5.8 µM [falling, single point].

`N#CC1=C(N)N2C(=C(C#N)C13CCN(Cc1ccccc1)CC3)Nc1ccccc12`: the AC50 under setting [1] was 16.4 µM [falling, single point].

Take `C/C(=N\NC(=O)c1c[nH]c2ccccc12)c1ccc2c(c1)OCO2`: the AC50 under setting [1] was 15.8 µM [falling, partial curve].

For the compound `Nc1ccc(-c2c3ccc(=O)cc-3oc3cc(O)ccc23)cc1C(=O)O`, the AC50 under setting [1] is 6.31 µM [rising, single point].

Regarding `CC(C)C(=O)Nc1ccc(N2CCN(C(=O)c3cccs3)CC2)cc1`, the AC50 under setting [1] is 13 µM [rising, single point].

`CC(C)(C)OC(=O)C[C@@H]1C/C=C\C[C@@H](CC(=O)NCCO)C(=O)N[C@H](C(C)(C)C)COC1=O`: the half-maximal activity concentration (AC50) under setting [1] is 6.51 µM [falling, single point].

As to `COc1ccc(CCn2c(C)cc(C(=O)CCl)c2C)cc1OC`, the AC50 under setting [1] was 35.5 µM [falling, single point].

Regarding `CC1CC(N(C(=O)c2ccco2)c2ccccc2)c2ccccc2N1C(=O)c1ccco1` (stereo unspecified), the AC50 is 29.1 µM [falling, single point] under setting [1] and 20.6 µM [rising, partial curve, poor fit] under setting [2].

On to `Cc1ccc2cc(NC(=O)c3ccccc3)ccc2n1`, for which, under setting [1], the AC50 is 7.08 µM [falling, partial curve, poor fit].

In the case of `Cc1ccc2nc3n(c(=O)c2c1)-c1ccccc1C(=O)NC3Cc1ccccc1` (stereo unspecified), the AC50 under setting [1] was 29.1 µM [rising, single point].

Consider `Cc1cccc(NC(=O)c2cc(-c3cc(C)ccc3O)n[nH]2)c1`, for which, under setting [1], the AC50 was 3.55 µM [falling, full curve].

Take `CCOC(=O)C(C)On1c(-c2ccc(Cl)cc2)nc2ccc([N+](=O)[O-])cc21` (stereo unspecified): the AC50 under setting [1] was 11.6 µM [rising, partial curve, poor fit].

With `CN(/N=C/Cc1nnnn1-c1ccc(Cl)cc1)c1ccccc1`, under setting [1], the AC50 was 3.16 µM [falling, single point].
